Source: PubChem BioAssay AID1347076 (National Center for Advancing Translational Sciences (NCATS), 2019)
The campaign covered roughly 400,000 compounds. About 13,000 (3.2%) were called active. Inconclusive results, whose numbers are uncertain, are shown with a selection of clear calls. The call rests on the fitted dose curve; in most records, active means well fitted cell-killing curve with a large enough effect; inconclusive means small, poorly fitted or top-dose-only effect, or effect the other way; inactive means flat fitted curve, though single readings scatter. Potencies of inconclusive entries are doubtful fits and often do not repeat.
On the % scale 0 is the no-effect control and ±100 the full control effect; potency means the concentration at half of the fitted maximal effect.

Assay: qHTS assay for MDR1-selective chemotherapeutics: Primary screen using the drug-selected MDR subline cells KB-V1; further: nearly all actives have a fitted effect of over 60% in size
Settings: KB-V1 MDR cells viability, CellTiter-Glo, 72 h; activity change, negative = cytotoxicity: at 46.1 µM (top of the series)
Summary of the method: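 Cytotoxicity toward P-gp-expressing KB-V1 cells was determined as loss of CellTiter-Glo luminescence after 72 h at 37 degrees C. Compounds were tested in quantitative HTS format across a concentration range, with curves fitted to normalized data.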
For `O=C(Cn1cc(S(=O)(=O)Cc2ccc(F)cc2)c2ccccc21)NCc1ccccc1Cl`, the Potency was “inactive”.
In the case of `COCC(=O)Nc1ccc(Nc2ccccc2)cc1`, the Potency was “inactive”.
In the case of `COc1ccccc1OCCCN1C(=O)C(=O)c2cccc(C)c21`, the Potency was “inactive”.
For `CSc1cccc(NC(=O)C2CCN(S(=O)(=O)c3ccc4c(c3)NC(=O)CO4)CC2)c1`, the Potency was “inactive”.
In the case of `COc1ccc(-n2c(SCc3ccccc3F)nc3c([nH]c4ccccc43)c2=O)cc1`, the Potency was inconclusive: 18.4 µM [rising, partial curve].
With `COc1cc(NC(=S)N2CCC(C(N)=O)CC2)cc(OC)c1` the Potency was inconclusive: 9.2 µM [rising, partial curve, poor fit].
In the case of `COc1ccc(C(=O)Nc2cc3c4c(c2)C(C)C(=O)N4CCC3)cc1` (configuration not stated), the Potency was inconclusive: 23.1 µM [cytotoxic, single point].
In the case of `COc1ccc(-n2c(COc3ccccc3)nnc2SCc2ccc(C#N)cc2)cc1`, the Potency was inconclusive: 5.17 µM [cytotoxic, partial curve].
For `Nc1c(C(=O)Nc2ccc(Br)cc2)sc2nc(-c3ccco3)ccc12`, the Potency was active: 5.17 µM.
With `Cc1ccccc1N1CCN(S(=O)(=O)c2nnc(NC(=O)c3ccc(Cl)cc3)s2)CC1` the activity change, negative = cytotoxicity was inconclusive: 35.9%.
In the case of `CCOc1cc(/C=N/NC(=O)Cc2ccc(C(F)(F)F)cc2[N+](=O)[O-])c(Br)cc1OC`, the Potency was “inactive”.
With `COC(=O)c1nn(-c2ccccc2)c2nnc(Cc3ccc(C)cc3)c(=O)n12` the Potency was inconclusive: 25.9 µM [rising, single point].
For `CCN(CC(=O)N1CCCC1)S(=O)(=O)c1cc(C)ccc1OC`, the Potency was inconclusive: 0.651 µM [cytotoxic, partial curve, poor fit].
With `COc1cccc(/C=N/NC(=O)CSCC(=O)Nc2ccccc2)c1O` the Potency was “inactive”.
With `C=CCn1c(=NC(=O)C2COc3ccccc3O2)sc2cc(S(N)(=O)=O)ccc21` (configuration not stated) the Potency was inconclusive: 29.1 µM [cytotoxic, single point].
In the case of `CCc1nnc(NC(=O)CSc2nccn2-c2ccccc2)s1`, the Potency was inconclusive: 14.6 µM [cytotoxic, partial curve].
For `CCCNC(=O)c1ccc(N2CCC3(CC2)CC(c2ccccc2)=NO3)c(NC(=O)c2ccc(Br)cc2)c1`, the Potency was inconclusive: 13 µM [rising, partial curve].
For `Cc1cc(C)n(-c2nc(NCCC(C)C)c3c4c(sc3n2)COC(C)(C)C4)n1`, the Potency was active: 2.31 µM.
With `C[C@@H]1CN([C@@H](C)CO)C(=O)CCCn2cc(nn2)CO[C@H]1CN(C)S(=O)(=O)c1ccccc1C#N` the Potency was inconclusive: 29.1 µM [rising, single point].
In the case of `Cc1cc(C)n(Cc2ccc(C(=O)O)o2)n1`, the Potency was inconclusive: 29.1 µM [rising, single point].
With `Cc1ccc2nc(SCc3cccc([N+](=O)[O-])c3)nc(C)c2c1` the Potency was inconclusive: 29.1 µM [cytotoxic, single point].
With `NC(=O)CC(NC(=O)c1ccccc1)c1ccc(NCCc2ccc(F)cc2)c([N+](=O)[O-])c1` (configuration not stated) the Potency was inconclusive: 14.6 µM [rising, partial curve, poor fit].
For `Cc1ccc(-n2c(C)cc(/C=N/NC(=O)c3ccncc3)c2C)cc1C`, the Potency was inconclusive: 29.1 µM [cytotoxic, single point].
In the case of `C=CCN=C1S/C(=C\c2ccc(N(C)C)cc2)C(=O)N1CC=C`, the Potency was “inactive”.
With `O=C(CCSc1ccc(Cl)cc1)N1CCN(c2ccc(O)cc2)CC1` the Potency was inconclusive: 20.6 µM [cytotoxic, single point].
With `Cc1ccc(-c2csc(NC(=O)CN3CC(C)OC(C)C3)n2)cc1` (configuration not stated) the Potency was inconclusive: 16.4 µM [cytotoxic, partial curve, poor fit].
For `Cc1ccc(S(=O)(=O)C2(C(=O)Nc3ccc(F)cc3)CC2)cc1`, the Potency was inconclusive: 14.6 µM [cytotoxic, single point].
For `C=CCN(CC=C)C(=S)NC(=O)c1ccc(OC)cc1`, the Potency was active: 16.4 µM.
With `Cc1csc(SCC(=O)NCc2ccccc2Cl)n1` the Potency was inconclusive: 25.9 µM [cytotoxic, single point].
With `O=C(O)c1cccc(N2C(=O)c3ccc(C(=O)c4cccc([N+](=O)[O-])c4)cc3C2=O)c1` the Potency was “inactive”.
For `O=C(CN1C(=O)c2ccccc2S1(=O)=O)c1ccc(F)c(F)c1`, the Potency was inconclusive: 29.1 µM [rising, single point].
With `Cc1ccccc1Cn1cnc2c(cnn2C(C)(C)C)c1=O` the Potency was inconclusive: 29.1 µM [cytotoxic, single point].
For `COc1cc2c(cc1OC)C(c1cccc([N+](=O)[O-])c1)N(C(=O)CCC(=O)O)CC2` (configuration not stated), the Potency was “inactive”.
For `COCCNc1nc(NCc2ccccc2)nc2ccsc12`, the Potency was inconclusive: 2.31 µM [cytotoxic, full curve].
With `CCC(C(=O)NC1CCCCCC1)n1nc(C)c2c(C)n(-c3ccccc3)nc2c1=O` (configuration not stated) the Potency was inconclusive: 5.8 µM [cytotoxic, full curve].
In the case of `Cc1cc2ncn(/N=C/c3ccc([N+](=O)[O-])s3)c2cc1C`, the Potency was inconclusive: 29.1 µM [rising, single point].
For `NC(=O)Cn1c(=O)n(CCC(=O)NCCSCc2ccccc2)c(=O)c2ccccc21`, the Potency was “inactive”.
With `CCC(C)(C(=O)NC1CCCCC1)N(CC1CCCO1)C(=O)c1ccccn1` (configuration not stated) the Potency was inconclusive: 16.4 µM [cytotoxic, single point].
For `COC(=O)c1cc2sc(Cl)cc2n1CC(=O)NCCC(C)C`, the Potency was inconclusive: 5.8 µM [cytotoxic, partial curve, poor fit].
In the case of `CCOC(=O)c1c(C)c(-c2ccccc2)n(CC(=O)NCCc2ccc(C)cc2)c1C`, the Potency was “inactive”.
In the case of `COc1cccc(NC(=O)CCC(=O)N2CC(C)Oc3ccc(C)cc32)c1` (configuration not stated), the Potency was “inactive”.
With `Cc1cc(C(=O)O[C@H]2[C@H](C)NS(=O)(=O)[C@H]3C[C@@H]4C=C[C@]23O4)cc([N+](=O)[O-])c1` the Potency was inconclusive: 29.1 µM [rising, partial curve, poor fit].
With `O=C1[C@H]2[C@@H](c3ccc(C(F)(F)F)cc3)N[C@]3(CCCN(Cc4ccccc4)C3=O)[C@H]2C(=O)N1Cc1ccccc1` the Potency was inconclusive: 18.4 µM [cytotoxic, single point].
For `O=C(COc1ccccc1F)N/N=C1\CCCc2ccccc21`, the Potency was inconclusive: 29.1 µM [cytotoxic, single point].
For `COc1ccc(CC(N)c2csc(NC(=O)C(c3ccccc3)c3ccccc3)n2)cc1` (configuration not stated), the Potency was active: 20.6 µM.
With `Cc1ccc(C(O)c2ncc(-c3cccc(C(F)(F)F)c3)[nH]2)c(C)c1` (configuration not stated) the Potency was “inactive”.
For `COc1ccc(CNC(=O)C[C@H]2C[C@H](C(=O)N3CCOCC3)[C@@]3(CCC4CCCC4)c4[nH]c5cc(-c6ccco6)ccc5c4CCN3C2=O)cc1OC`, the Potency was “inactive”.
In the case of `NC(=O)c1c(NC(=O)CSc2nnc(Cc3ccccc3)n2Cc2ccco2)sc2c1CCC2`, the Potency was active: 14.6 µM.
With `Cc1onc(-c2ccccc2)c1C(=O)NC(=S)NNC(=O)c1ccncc1` the Potency was inconclusive: 16.4 µM [cytotoxic, single point].
For `O=C(NCc1ccco1)c1ccccc1SCC(=O)N1CCCC1`, the Potency was “inactive”.
In the case of `N=c1c2c(-c3ccccc3)c(-c3ccccc3)n(Cc3ccco3)c2ncn1Cc1ccco1`, the Potency was inconclusive: 29.1 µM [cytotoxic, single point].
In the case of `Cc1noc(C)c1CN1C(=O)c2ccccc2C1=O`, the Potency was inconclusive: 23.1 µM [rising, partial curve, poor fit].
For `COc1cc(C(=O)NCC(=O)NCCN2C(=O)S/C(=C\c3ccccc3Cl)C2=O)cc(OC)c1OC`, the Potency was “inactive”.
For `CC1=CC(C)(C)N(C(=O)CN2C(=O)CCC2=O)c2ccccc21`, the Potency was inconclusive: 29.1 µM [rising, single point].
For `Cc1ccc(C(CC(=O)Nc2cc(C)cc(C)c2)N2Cc3ccccc3C2=O)cc1` (configuration not stated), the Potency was inconclusive: 20.6 µM [cytotoxic, single point].
With `CCN(CC)c1ccc(-n2nc3cc(C)c(NC(=O)c4ccccc4F)cc3n2)cc1` the Potency was inconclusive: 29.1 µM [cytotoxic, single point].
With `Cc1cc(/C=C\c2ccc3cc(N(C)C)ccc3[n+]2C)c(C)n1-c1ccccc1` the Potency was inconclusive: 20.6 µM [cytotoxic, single point].
For `CCNC(=S)Nn1cnc2ccccc21`, the Potency was “inactive”.
For `O=C(c1ccco1)N1CCN(CCCCOc2cccc3ccccc23)CC1`, the Potency was inconclusive: 16.4 µM [cytotoxic, partial curve].
For `C/C(CC(=O)Nc1ccc(Cl)c(C(F)(F)F)c1)=N\NC(=O)c1ccccc1O`, the Potency was active: 18.4 µM.
For `O=C(CCc1ccccc1)Nc1cc(NC(=O)CCc2ccccc2)cc(C(=O)O)c1`, the Potency was inconclusive: 29.1 µM [rising, single point].
In the case of `CN(C)CCn1c(=N)n(CC(O)c2ccc(Cl)c(Cl)c2)c2ccccc21` (configuration not stated), the Potency was “inactive”.
With `CN(C)N1C(N)=C(C#N)C(c2cccnc2)C2=C1CC(C)(C)CC2=O` (configuration not stated) the Potency was inconclusive: 29.1 µM [rising, single point].
In the case of `COC(=O)[C@@]12C[C@@H](CC(=O)NCCC(C)C)C(=O)N(Cc3ccccc3)C1=CCC(C)(C)C2`, the Potency was inconclusive: 8.2 µM [cytotoxic, partial curve].
For `O=C1NC(=O)/C(=C\c2cn(Cc3ccccc3F)c3ccccc23)N1`, the Potency was inconclusive: 25.9 µM [cytotoxic, partial curve, poor fit].
In the case of `CCOC(=O)c1nnn2c1nc(Nc1cccc(C(F)(F)F)c1)c1ccccc12`, the Potency was “inactive”.
For `COc1ccc(C(C(=O)NC(C)(C)C)N(CCc2ccccc2)C(=O)CCC(=O)Nc2cc(C)on2)cc1` (configuration not stated), the Potency was inconclusive: 6.51 µM [cytotoxic, partial curve].
